Assay results published in publication doi:10.1101/830802.
These are yes or no findings as the source states them, for the method shown. Binding seen in cells or lysates may run through a third protein. Some results given as binding are weak or reduced against the parent protein; the word gives no strength. Tags and fused reporters may be left off the sequences shown.

Columns and labels:
Test in all cases: co-IP
[1] = target: T1, GFP-Auxilin Q791X (human) (UniProt O75061)
T1 sequence: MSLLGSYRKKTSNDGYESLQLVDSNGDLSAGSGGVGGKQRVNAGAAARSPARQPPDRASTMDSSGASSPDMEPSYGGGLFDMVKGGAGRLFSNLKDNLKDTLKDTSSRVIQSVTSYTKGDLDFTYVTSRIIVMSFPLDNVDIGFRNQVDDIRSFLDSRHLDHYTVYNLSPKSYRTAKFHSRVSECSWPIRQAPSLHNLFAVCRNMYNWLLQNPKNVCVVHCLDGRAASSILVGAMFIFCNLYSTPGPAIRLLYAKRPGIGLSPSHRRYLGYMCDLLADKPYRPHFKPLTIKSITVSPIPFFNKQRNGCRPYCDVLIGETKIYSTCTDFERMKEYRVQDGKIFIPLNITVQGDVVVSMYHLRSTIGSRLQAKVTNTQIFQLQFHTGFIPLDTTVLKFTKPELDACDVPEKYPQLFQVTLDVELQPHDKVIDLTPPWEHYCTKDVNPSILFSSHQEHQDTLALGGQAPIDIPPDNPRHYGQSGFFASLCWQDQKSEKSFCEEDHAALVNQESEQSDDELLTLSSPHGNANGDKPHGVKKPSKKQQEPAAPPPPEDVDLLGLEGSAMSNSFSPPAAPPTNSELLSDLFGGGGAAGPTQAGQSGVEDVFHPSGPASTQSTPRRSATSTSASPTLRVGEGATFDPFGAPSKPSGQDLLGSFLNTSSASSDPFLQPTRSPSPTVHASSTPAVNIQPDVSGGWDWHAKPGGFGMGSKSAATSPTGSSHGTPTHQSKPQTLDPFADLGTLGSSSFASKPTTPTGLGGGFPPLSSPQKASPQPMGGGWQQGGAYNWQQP

[2] = target: T2, GFP-Auxilin Q846X (human) (UniProt O75061)
T2 sequence: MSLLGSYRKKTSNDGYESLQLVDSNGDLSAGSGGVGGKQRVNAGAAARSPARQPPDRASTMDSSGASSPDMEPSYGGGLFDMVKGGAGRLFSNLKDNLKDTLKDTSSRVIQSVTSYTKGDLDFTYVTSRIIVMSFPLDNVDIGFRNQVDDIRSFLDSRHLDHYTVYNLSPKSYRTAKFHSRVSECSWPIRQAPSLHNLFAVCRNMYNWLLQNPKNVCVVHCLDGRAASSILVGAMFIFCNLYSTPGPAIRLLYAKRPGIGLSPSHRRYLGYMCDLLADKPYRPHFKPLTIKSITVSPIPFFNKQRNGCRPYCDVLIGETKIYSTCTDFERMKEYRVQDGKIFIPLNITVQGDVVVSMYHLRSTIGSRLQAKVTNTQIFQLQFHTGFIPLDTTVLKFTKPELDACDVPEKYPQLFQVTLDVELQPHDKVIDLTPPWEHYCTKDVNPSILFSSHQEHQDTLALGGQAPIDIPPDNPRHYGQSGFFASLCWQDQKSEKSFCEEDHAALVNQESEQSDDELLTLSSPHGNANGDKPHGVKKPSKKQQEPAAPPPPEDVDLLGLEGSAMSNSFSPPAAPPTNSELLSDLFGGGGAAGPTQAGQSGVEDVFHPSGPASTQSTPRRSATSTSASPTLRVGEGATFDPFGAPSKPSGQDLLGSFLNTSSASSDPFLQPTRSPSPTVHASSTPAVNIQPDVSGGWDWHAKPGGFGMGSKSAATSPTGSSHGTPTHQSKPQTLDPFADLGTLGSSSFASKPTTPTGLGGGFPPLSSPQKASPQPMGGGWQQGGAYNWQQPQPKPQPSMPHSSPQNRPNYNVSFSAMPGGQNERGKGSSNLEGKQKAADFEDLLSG

[3] = target: T3, GFP-Auxilin R927G (human) (UniProt O75061)
T3 sequence: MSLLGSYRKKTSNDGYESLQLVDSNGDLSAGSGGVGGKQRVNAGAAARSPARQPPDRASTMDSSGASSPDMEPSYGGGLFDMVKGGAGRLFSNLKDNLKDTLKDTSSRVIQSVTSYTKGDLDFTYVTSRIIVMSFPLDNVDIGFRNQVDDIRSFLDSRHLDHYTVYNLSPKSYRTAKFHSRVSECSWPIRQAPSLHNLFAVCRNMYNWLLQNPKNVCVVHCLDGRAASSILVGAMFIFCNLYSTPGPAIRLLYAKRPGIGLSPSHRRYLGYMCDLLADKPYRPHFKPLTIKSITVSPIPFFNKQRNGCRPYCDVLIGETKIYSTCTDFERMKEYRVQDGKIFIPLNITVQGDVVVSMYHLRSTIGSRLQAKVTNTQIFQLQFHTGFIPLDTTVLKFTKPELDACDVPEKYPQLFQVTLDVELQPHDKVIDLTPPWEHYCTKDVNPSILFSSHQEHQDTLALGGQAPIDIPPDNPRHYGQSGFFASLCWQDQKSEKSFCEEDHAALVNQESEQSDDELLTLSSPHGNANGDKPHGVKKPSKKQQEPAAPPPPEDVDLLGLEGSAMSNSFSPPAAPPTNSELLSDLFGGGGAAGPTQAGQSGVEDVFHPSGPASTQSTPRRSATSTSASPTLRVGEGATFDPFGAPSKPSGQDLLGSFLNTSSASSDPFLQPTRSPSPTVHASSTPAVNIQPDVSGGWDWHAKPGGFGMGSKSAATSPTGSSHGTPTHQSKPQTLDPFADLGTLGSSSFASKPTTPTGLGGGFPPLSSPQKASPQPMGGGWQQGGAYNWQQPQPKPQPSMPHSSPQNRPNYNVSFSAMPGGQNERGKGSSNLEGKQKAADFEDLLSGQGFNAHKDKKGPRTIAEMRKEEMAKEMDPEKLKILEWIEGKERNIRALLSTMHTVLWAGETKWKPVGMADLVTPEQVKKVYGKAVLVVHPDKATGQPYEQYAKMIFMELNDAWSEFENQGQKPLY

Measured: binding

B1: GGA3, endogenous in HEK293FT (protein, UniProt Q9NZ52 1-723)
chain: MAEAEGESLESWLNKATNPSNRQEDWEYIIGFCDQINKELEGPQIAVRLLAHKIQSPQEWEALQALTVLEACMKNCGRRFHNEVGKFRFLNELIKVVSPKYLGDRVSEKVKTKVIELLYSWTMALPEEAKIKDAYHMLKRQGIVQSDPPIPVDRTLIPSPPPRPKNPVFDDEEKSKLLAKLLKSKNPDDLQEANKLIKSMVKEDEARIQKVTKRLHTLEEVNNNVRLLSEMLLHYSQEDSSDGDRELMKELFDQCENKRRTLFKLASETEDNDNSLGDILQASDNLSRVINSYKTIIEGQVINGEVATLTLPDSEGNSQCSNQGTLIDLAELDTTNSLSSVLAPAPTPPSSGIPILPPPPQASGPPRSRSSSQAEATLGPSSTSNALSWLDEELLCLGLADPAPNVPPKESAGNSQWHLLQREQSDLDFFSPRPGTAACGASDAPLLQPSAPSSSSSQAPLPPPFPAPVVPASVPAPSAGSSLFSTGVAPALAPKVEPAVPGHHGLALGNSALHHLDALDQLLEEAKVTSGLVKPTTSPLIPTTTPARPLLPFSTGPGSPLFQPLSFQSQGSPPKGPELSLASIHVPLESIKPSSALPVTAYDKNGFRILFHFAKECPPGRPDVLVVVVSMLNTAPLPVKSIVLQAAVPKSMKVKLQPPSGTELSPFSPIQPPAAITQVMLLANPLKEKVRLRYKLTFALGEQLSTEVGEVDQFPPVEQWGNL
binds weakly: all assays above
